# Reference: the supplement of paper PMC3334620
# The full ranking holds about 33,000 sequences; the median of “E-score (-0.5 to 0.5)” is about -0.0059, and the highest 2% start at about 0.26. This is one part of the list.
# Target: T1, Cin5 (UniProt P40917)
# T1 sequence: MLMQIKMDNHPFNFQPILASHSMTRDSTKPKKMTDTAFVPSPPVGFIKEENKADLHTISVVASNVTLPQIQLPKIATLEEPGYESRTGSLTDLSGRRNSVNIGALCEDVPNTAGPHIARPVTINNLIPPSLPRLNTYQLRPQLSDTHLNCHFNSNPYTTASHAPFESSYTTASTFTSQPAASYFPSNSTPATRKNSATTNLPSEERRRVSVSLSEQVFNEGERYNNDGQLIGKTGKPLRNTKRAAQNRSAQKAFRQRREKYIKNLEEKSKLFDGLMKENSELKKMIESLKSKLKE
# Experiment: PBM E-score (8-mer binding enrichment) (E-score (-0.5 to 0.5)); higher = stronger / more preferred TF binding
# Conditions: protein concentration: 100 nM; construct: GST-full length
# Method in brief: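 Each ungapped eight-base word and its reverse complement, pooled, received an E-score from the Universal PBM Analysis Suite. Underlying scans, normalised with masliner, recorded fluorescent anti-GST bound to GST-tagged yeast transcription factors. These were applied at about 100-200 nM to universal all-10-mer Agilent arrays double-stranded by primer extension.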
row,Sequence,PBM E-score
1,AATCCGTC,0.152
2,ACTACCAC,0.017
3,CCTGAGCA,-0.0888
4,AGGATACA,-0.0837
5,CCTTGGAA,-0.0557
6,GTGGCGGA,-0.226
7,GACAAGGA,-0.109
8,CTAGTGCC,-0.168
9,AAACTCTT,-0.256
10,CAGCCACG,-0.122
11,ACAAGGCA,-0.0252
12,ACTACCTG,0.0858
13,GAGTGGCA,-0.0399
14,AGTCTCAA,-0.166
15,GTACACAC,0.0505
16,CGTAATAG,0.223
17,TAGGTCAA,0.0917
18,ATAGTCTA,-0.0255
19,TCCGTCCA,0.0885
20,CCCCCATC,-0.318
21,CCTAATTA,0.0517
22,GTCCTTAA,0.11
23,AATCCGGC,0.0181
24,ACAAACAA,0.144
25,CTGCATCC,-0.0651

# Another view of some results above.
row	Sequence	PBM E-score
21	CCTAATTA	0.0517
22	GTCCTTAA	0.11

# Continuation:

row,Sequence,PBM E-score
1,ATATATTC,0.248
2,CAGTCATC,-0.111
3,CCACCTGC,0.0307
4,CCTTTCTC,-0.1
5,CGTACCGA,-0.0821
6,CATAGAGG,-0.0883
7,AGCATTAT,0.177
8,GCGGGTAA,0.0106
9,GGCCGTAC,-0.0654
10,ACCCGAAA,0.0973
11,ACGAGGTC,0.00932
12,GGGTATTA,0.173
13,CTCATTTC,-0.04
14,ATATGTGC,-0.00628
15,CGTGAACA,0.0134
16,AATTAGGC,0.164
17,ATTTGCCC,0.0256
18,ACTGGTAC,0.0272
19,ATACCGAG,-0.0821
20,CGTCATGA,0.164
21,ATAGCAGC,-0.206
22,AAATAAGT,0.12
23,ATACATAC,0.0724
24,ACCCTAGC,-0.0454
25,GTAGTGGA,0.113

row,Sequence,PBM E-score
1,CCCTCCTC,-0.262
2,ACCACTCG,0.0377
3,AGTCTTTG,-0.215
4,GGCCTTGA,-0.101
5,TCTTTCAA,-0.0045
6,CTTTGACC,0.0175
7,AATCTCTC,0.0151
8,ACGTACCA,0.0419
9,CGGATTCA,-0.0163
10,GCATCGGA,0.069
11,GCTGAGGA,-0.161
12,ACGGTTAG,-0.21
13,TAACAGCA,0.128
14,AACAGCAC,-0.0967
15,AATCCGAG,0.014
16,AGGAATGC,-0.064
17,AAGCTCTG,-0.18
18,GTTTAGTA,0.162
19,CTAAGCAA,0.076
20,ACGAATTG,-0.043
21,GAGCTTCA,0.0888
22,AGTTTCTG,0.0528
23,GTTTTGCA,0.0968
24,CGAACGAA,0.0963
25,AGCTCTCA,-0.0678

row,Sequence,PBM E-score
1,CCCAGTGC,-0.0746
2,GATCGAAC,-0.0729
3,GCGGTTAC,0.0688
4,CAAGTTTA,0.0995
5,ATACTCCC,-0.0138
6,AAGTAGTA,0.165
7,CGCGAATC,0.0184
8,ACCAAGAA,0.0753
9,TTCGAAAA,0.0825
10,ATTTAGCA,0.109
11,TAGCAGAA,0.0966
12,AGGATGAG,0.0326
13,ACGTGGAA,-0.00812
14,AGGGAGAC,-0.0805
15,CCTCTGGC,-0.225
16,GTTGCCCA,0.0544
17,AGCTTGTG,0.00797
18,GTGCTACA,-0.106
19,CTTGGCCC,-0.227
20,GGATCCCC,-0.266
21,CATCTGCA,0.0416
22,GTAATCCA,0.281
23,AACGGAAG,0.18
24,CCGTTCAA,0.0867
25,AGAATCAA,0.102

row,Sequence,PBM E-score
1,CCGAAACC,-0.166
2,ACTCCATG,-0.138
3,CACGCTAG,-0.0393
4,GGGCTAAC,-0.224
5,AACTCATC,0.158
6,CGGCGTGC,-0.169
7,GCAGAGCC,-0.258
8,CTATTGCC,0.0119
9,AACACTGA,0.271
10,AAGCGGCG,-0.0619
11,GAGTGGGC,-0.121
12,AATTCTGC,0.084
13,CACAACCA,0.115
14,TACATCAA,0.0545
15,AGATTTGG,-0.0986
16,CCGACTCG,-0.148
17,CACTTCGC,-0.134
18,GCCTGTAC,-0.0799
19,CCGGCTCG,-0.204
20,CGACGAGA,-0.00879
21,CATGAAAA,0.171
22,GGGAACCC,-0.0812
23,AAGTATCC,-0.0119
24,AACTGTAG,0.15
25,CGGACACG,-0.136

# Reformatted: entries from further up
row	Sequence	PBM E-score
18	GCCTGTAC	-0.0799
19	CCGGCTCG	-0.204
20	CGACGAGA	-0.00879

# Next part

row,Sequence,PBM E-score
1,AAATACAA,0.183
2,CGGGGGTC,-0.417
3,GCCAGCGA,-0.213
4,AATAAGTC,-0.0024
5,AGACCACT,0.0688
6,AACTTATT,0.244
7,AACGGTTA,-0.119
8,ACACTAGC,-0.114
9,AACAGAGA,0.124
10,ATGGGGCC,-0.318
11,CTATGTTC,0.0326
12,CAATGAAG,0.0401
13,AATAGTAT,0.248
14,CCATCAAC,0.00401
15,TGCCCGAA,-0.00457
16,GAGAAGCC,-0.0341
17,ACGCCTTA,-0.164
18,CCACGGAA,0.109
19,GAAGTCGC,-0.016
20,GTATCCGA,-0.0305
21,GAGCTACC,-0.168
22,CCAATAAG,0.00457
23,GCTGTGCC,-0.0568
24,ACTTCCAT,0.017
25,GGGTCCTA,-0.153

# Pulled one by one from the entries so far:
row,Sequence,PBM E-score
11,GCTGAGGA,-0.161
23,AACGGAAG,0.18
5,ATACTCCC,-0.0138
1,CCCAGTGC,-0.0746
7,CGCGAATC,0.0184
9,GGCCGTAC,-0.0654
18,CCACGGAA,0.109

# (listing goes on)

row,Sequence,PBM E-score
1,CATTGACC,0.207
2,ATTTTCCA,0.15
3,CGACAACA,0.109
4,GGTCGCAC,-0.0457
5,CTTCATAA,0.191
6,CCACTAGG,-0.2
7,AATACCGC,-0.051
8,ACCGTATC,-0.0415
9,CATATAAG,0.0464
10,CGATTACC,0.143
11,AGGCTAAG,-0.0874
12,TCAGAGAA,-0.034
13,AGACAAAT,0.169
14,CTTCGCTA,-0.0307
15,AGTTCGAA,0.0778
16,CTTCGGTA,-0.00617
17,GCCTCTTA,-0.0406
18,CTCTCAAC,-0.125
19,GTAACAAA,0.15
20,CACTGACC,-0.0454
21,AACACAGG,-0.0744
22,AGAGGATG,0.129
